{
  "source": "patent US20060178342A1",
  "about": "“Hyaluronan as a cytotoxic agent, drug pre-sensitizer and chemo-sensitizer in the treatment of disease” (priority 2001, published 2006)",
  "tested_on": "MDA-MB-468 human breast carcinoma xenografts",
  "assay": "6-week efficacy study of HA ± 5-FU in nude mouse xenografts",
  "assay_type": "in vivo",
  "conditions": "6-week study; saline group 6-fold higher",
  "method": "From the results in Example 2 the carcinoma cell line MDA-MB-468 was selected as the cancer cell inoculant for the generation of any nude mouse human tumour xenografts. Cells were routinely grown and subcultured as a previously described in Example 2. For injection into mice, cells were grown to 100% confluency, trypsinised in 0.025% trypsin/0.01% EDTA solution, washed twice by centrifugation in a Beckman TJ-6 bench centrifuge at 400 gav for 10 min, counted using a Model-ZM Coulter counter and resuspended in serum-free Leibovitz L-15 medium at 1×10^8 cells/ml. […]\nIndividual injections of 5-FU were prepared according to individual mouse masses, with the aim of delivering 30 mg/kg 5-FU in 50 μl (equivalent to human therapeutic dose of 10.5 mg/kg for a mean body weight of 60 kg; Inaba et al, 1988). […] With this quantity of HA injected into the body, saturation kinetics would be observed for the period of the experimentation (Fraser et al, 1983). […]\nAnimals were weighed and tumour volumes measured on the day of treatment application for long term study. In the 6-week study animals were weighed and tumour volumes measured on a daily basis. […]\nTumour volume was monitored on a daily or weekly basis by caliper measurements and tumour volume calculated as previously described.",
  "note": "Some results were stated once for a whole list of compounds, not compound by compound.",
  "data": [
    {"smiles": "O=c1[nH]cc(F)c(=O)[nH]1", "note": "[5-FU, 5-fluorouracil, reference compound]", "values": [
      {"measurement": "percentage of lymph node involvement (metastatic nodes per animal)", "value": "12.2-14.3%"}
    ]}
  ]
}
